{"source": "the supplement of paper PMC8728848", "assay_in_all_cases": "glycan array binding signal (z-score within array); higher = stronger binding", "conditions_in_all_cases": "glycan notation: IUPAC condensed, linker removed", "key": {"[1]": {"biological_target": "Fuc(a1-3)[GalNAc(b1-4)]GlcNAc", "in_short": "(§1)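 Glycan array data were curated from 3228 arrays in the Consortium for Functional Glycomics database and kept only where the protein sequence was available. Glycan names were converted to IUPAC-condensed notation, and columns mapping to the same glycan were averaged. The binding signal is a within-array Z-score, averaged across arrays of the same protein sequence at different concentrations or buffers and across linkers. Negative Z-scores can be read as non-binding.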"}, "[2]": {"biological_target": "Fuc(a1-3)[GalNAc(b1-4)]GlcNAc6S", "in_short": "as §1"}, "[3]": {"biological_target": "Fuc(a1-4)GlcNAc", "in_short": "as §1"}, "[4]": {"biological_target": "Fuc(b1-3)GlcNAc", "in_short": "as §1"}, "[5]": {"biological_target": "Gal(a1-2)Gal", "in_short": "as §1"}, "[6]": {"biological_target": "Gal(a1-3)Gal", "in_short": "as §1"}, "[7]": {"biological_target": "Gal(a1-3)Gal(b1-3)GlcNAc", "in_short": "as §1"}, "[8]": {"biological_target": "Gal(a1-3)Gal(b1-3)GlcNAc(b1-2)Man", "in_short": "as §1"}, "[9]": {"biological_target": "Gal(a1-3)Gal(b1-3)GlcNAc(b1-2)Man(a1-3)[Gal(a1-3)Gal(b1-3)GlcNAc(b1-2)Man(a1-6)]Man(b1-4)GlcNAc(b1-4)GlcNAc", "in_short": "as §1"}, "[10]": {"biological_target": "Gal(a1-3)Gal(b1-3)GlcNAc(b1-3)GalNAc", "in_short": "as §1"}, "[11]": {"biological_target": "Gal(a1-3)Gal(b1-3)GlcNAc(b1-6)GalNAc", "in_short": "as §1"}, "[12]": {"biological_target": "Gal(a1-3)Gal(b1-3)[Fuc(a1-4)]GlcNAc(b1-2)Man(a1-3)[Gal(a1-3)Gal(b1-3)[Fuc(a1-4)]GlcNAc(b1-2)Man(a1-6)]Man(b1-4)GlcNAc(b1-4)GlcNAc", "in_short": "as §1"}, "[13]": {"biological_target": "Gal(a1-3)Gal(b1-4)Glc", "in_short": "as §1"}, "[14]": {"biological_target": "Gal(a1-3)Gal(b1-4)GlcNAc", "in_short": "as §1"}, "[15]": {"biological_target": "Gal(a1-3)Gal(b1-4)GlcNAc(b1-2)Man", "in_short": "as §1"}, "[16]": {"biological_target": "Gal(a1-3)Gal(b1-4)GlcNAc(b1-2)Man(a1-3)[Gal(a1-3)Gal(b1-4)GlcNAc(b1-2)Man(a1-6)]Man(b1-4)GlcNAc(b1-4)GlcNAc", "in_short": "as §1"}, "[17]": {"biological_target": "Gal(a1-3)Gal(b1-4)GlcNAc(b1-3)GalNAc", "in_short": "as §1"}, "[18]": {"biological_target": "Gal(a1-3)Gal(b1-4)GlcNAc(b1-6)GalNAc", "in_short": "as §1"}, "[19]": {"biological_target": "Gal(a1-3)Gal(b1-4)[Fuc(a1-3)]GlcNAc", "in_short": "as §1"}, "[20]": {"biological_target": "Gal(a1-3)Gal(b1-4)[Fuc(a1-3)]GlcNAc(b1-2)Man(a1-3)[Gal(a1-3)Gal(b1-4)[Fuc(a1-3)]GlcNAc(b1-2)Man(a1-6)]Man(b1-4)GlcNAc(b1-4)GlcNAc", "in_short": "as §1"}, "[21]": {"biological_target": "Gal(a1-3)GalNAc", "in_short": "as §1"}, "[22]": {"biological_target": "Gal(a1-3)[Gal(a1-4)]Gal(b1-4)GlcNAc", "in_short": "as §1"}, "[23]": {"biological_target": "Gal(a1-4)Gal(b1-3)GlcNAc(b1-2)Man(a1-3)[Gal(a1-4)Gal(b1-3)GlcNAc(b1-2)Man(a1-6)]Man(b1-4)GlcNAc(b1-4)GlcNAc", "in_short": "as §1"}, "[24]": {"biological_target": "Gal(a1-4)Gal(b1-4)Glc", "in_short": "as §1"}, "[25]": {"biological_target": "Gal(a1-4)Gal(b1-4)GlcNAc", "in_short": "as §1"}, "[26]": {"biological_target": "Gal(a1-4)Gal(b1-4)GlcNAc(b1-2)Man(a1-3)[Gal(a1-4)Gal(b1-4)GlcNAc(b1-2)Man(a1-6)]Man(b1-4)GlcNAc(b1-4)GlcNAc", "in_short": "as §1"}, "[27]": {"biological_target": "Gal(a1-4)Gal(b1-4)GlcNAc(b1-3)Gal(b1-4)Glc", "in_short": "as §1"}, "[28]": {"biological_target": "Gal(a1-4)GlcNAc", "in_short": "as §1"}, "[29]": {"biological_target": "Gal(a1-6)Glc", "in_short": "as §1"}, "[30]": {"biological_target": "Gal(b1-2)Gal", "in_short": "as §1"}, "[31]": {"biological_target": "Gal(b1-3)Gal", "in_short": "as §1"}, "[32]": {"biological_target": "Gal(b1-3)Gal(b1-4)GlcNAc", "in_short": "as §1"}, "[33]": {"biological_target": "Gal(b1-3)GalNAc", "in_short": "as §1"}, "[34]": {"biological_target": "Gal(b1-3)GalNAc(a1-3)[Fuc(a1-2)]Gal(b1-4)Glc", "in_short": "as §1"}, "[35]": {"biological_target": "Gal(b1-3)GalNAc(a1-3)[Fuc(a1-2)]Gal(b1-4)GlcNAc", "in_short": "as §1"}, "[36]": {"biological_target": "Gal(b1-3)GalNAc(b1-3)Gal", "in_short": "as §1"}, "[37]": {"biological_target": "Gal(b1-3)GalNAc(b1-3)Gal(a1-4)Gal(b1-4)Glc", "in_short": "as §1"}, "[38]": {"biological_target": "Gal(b1-3)GalNAc(b1-4)Gal(b1-4)Glc", "in_short": "as §1"}, "[39]": {"biological_target": "Gal(b1-3)GalNAc(b1-4)[Neu5Ac(a2-3)]Gal(b1-4)Glc", "in_short": "as §1"}, "[40]": {"biological_target": "Gal(b1-3)GlcNAc", "in_short": "as §1"}, "[41]": {"biological_target": "Gal(b1-3)GlcNAc(a1-3)Gal(b1-4)GlcNAc", "in_short": "as §1"}, "[42]": {"biological_target": "Gal(b1-3)GlcNAc(a1-6)Gal(b1-4)GlcNAc", "in_short": "as §1"}, "[43]": {"biological_target": "Gal(b1-3)GlcNAc(b1-2)Man", "in_short": "as §1"}, "[44]": {"biological_target": "Gal(b1-3)GlcNAc(b1-2)Man(a1-3)[Gal(b1-3)GlcNAc(b1-2)Man(a1-6)]Man(b1-4)GlcNAc(b1-4)GlcNAc", "in_short": "as §1"}, "[45]": {"biological_target": "Gal(b1-3)GlcNAc(b1-2)Man(a1-3)[Gal(b1-3)GlcNAc(b1-2)Man(a1-6)]Man(b1-4)GlcNAc(b1-4)[Fuc(a1-6)]GlcNAc", "in_short": "as §1"}}, "note": "The other results are listed elsewhere or left out.", "data": [{"binder": "HFR-3 (Triticum aestivum) (protein) MKGLLLCALALAFAAVTTHAQLQSCPTRCGKQADGMECPNNLCCSKDGYCGLGVDYCSAGAGCQSGACYDNKICGAQANGTLCRNNHCCSSGGRCGYGREYCSNGCQGGPCWADLKCGHLDNGKLCPNNLCCSQYGYCGLGPEFCGTGCQNGACSTDKPCGNKANGAPCTNNYCCSQYGSCGLGKDYCGTGCQNGACN", "values": [{"measurement": "glycan array binding signal (z-score)", "setting": "[1]", "result": 0.68}, {"measurement": "glycan array binding signal (z-score)", "setting": "[2]", "result": 1.08}, {"measurement": "glycan array binding signal (z-score)", "setting": "[3]", "result": 0.23}, {"measurement": "glycan array binding signal (z-score)", "setting": "[4]", "result": 0.113}, {"measurement": "glycan array binding signal (z-score)", "setting": "[5]", "result": 0.046}, {"measurement": "glycan array binding signal (z-score)", "setting": "[6]", "result": 0.103}, {"measurement": "glycan array binding signal (z-score)", "setting": "[7]", "result": 0.169}, {"measurement": "glycan array binding signal (z-score)", "setting": "[8]", "result": 0.493}, {"measurement": "glycan array binding signal (z-score)", "setting": "[9]", "result": 0.506}, {"measurement": "glycan array binding signal (z-score)", "setting": "[10]", "result": -1.03}, {"measurement": "glycan array binding signal (z-score)", "setting": "[11]", "result": -0.577}, {"measurement": "glycan array binding signal (z-score)", "setting": "[12]", "result": -1.67}, {"measurement": "glycan array binding signal (z-score)", "setting": "[13]", "result": 0.128}, {"measurement": "glycan array binding signal (z-score)", "setting": "[14]", "result": 0.079}, {"measurement": "glycan array binding signal (z-score)", "setting": "[15]", "result": 0.46}, {"measurement": "glycan array binding signal (z-score)", "setting": "[16]", "result": 0.706}, {"measurement": "glycan array binding signal (z-score)", "setting": "[17]", "result": -0.42}, {"measurement": "glycan array binding signal (z-score)", "setting": "[18]", "result": 0.589}, {"measurement": "glycan array binding signal (z-score)", "setting": "[19]", "result": -0.409}, {"measurement": "glycan array binding signal (z-score)", "setting": "[20]", "result": -0.792}, {"measurement": "glycan array binding signal (z-score)", "setting": "[21]", "result": 2.1}, {"measurement": "glycan array binding signal (z-score)", "setting": "[22]", "result": 1.2}, {"measurement": "glycan array binding signal (z-score)", "setting": "[23]", "result": 0.67}, {"measurement": "glycan array binding signal (z-score)", "setting": "[24]", "result": 2.12}, {"measurement": "glycan array binding signal (z-score)", "setting": "[25]", "result": 0.8}, {"measurement": "glycan array binding signal (z-score)", "setting": "[26]", "result": -0.424}, {"measurement": "glycan array binding signal (z-score)", "setting": "[27]", "result": 0.114}, {"measurement": "glycan array binding signal (z-score)", "setting": "[28]", "result": 0.019}, {"measurement": "glycan array binding signal (z-score)", "setting": "[29]", "result": -0.354}, {"measurement": "glycan array binding signal (z-score)", "setting": "[30]", "result": -0.892}, {"measurement": "glycan array binding signal (z-score)", "setting": "[31]", "result": -0.289}, {"measurement": "glycan array binding signal (z-score)", "setting": "[32]", "result": -0.718}, {"measurement": "glycan array binding signal (z-score)", "setting": "[33]", "result": 0.091}, {"measurement": "glycan array binding signal (z-score)", "setting": "[34]", "result": 1.68}, {"measurement": "glycan array binding signal (z-score)", "setting": "[35]", "result": 0.121}, {"measurement": "glycan array binding signal (z-score)", "setting": "[36]", "result": -0.312}, {"measurement": "glycan array binding signal (z-score)", "setting": "[37]", "result": 2.05}, {"measurement": "glycan array binding signal (z-score)", "setting": "[38]", "result": 2.24}, {"measurement": "glycan array binding signal (z-score)", "setting": "[39]", "result": -0.997}, {"measurement": "glycan array binding signal (z-score)", "setting": "[40]", "result": 1.05}, {"measurement": "glycan array binding signal (z-score)", "setting": "[41]", "result": -0.655}, {"measurement": "glycan array binding signal (z-score)", "setting": "[42]", "result": -1.2}, {"measurement": "glycan array binding signal (z-score)", "setting": "[43]", "result": -1.05}, {"measurement": "glycan array binding signal (z-score)", "setting": "[44]", "result": -0.694}, {"measurement": "glycan array binding signal (z-score)", "setting": "[45]", "result": 0.089}]}]}
